Test results: publication PMC7819943, “Rice protein-binding microarrays: a tool to detect cis-acting elements near promoter regions in rice”
Some of the results follow.

target: T1, OsSMF1 (Oryza sativa, UniProt Q6ZLB0 1-436); assay: protein-binding microarray (RPBM); PBS, 2% BSA, 51.3 ng/ul salmon testes DNA, 50 uM zinc acetate, 200 nM TF, 25 C, 1 h; high values mean tight binding; details: protein: recombinant; tags: N-terminal polyhistidine and DsRed monomer fusion (pET32a); chain copies: 2; label: CyDye5-dUTP incorporated in the synthesized complementary strand; 3' TTTTT single-stranded linker to array surface; dsDNA, one strand shown
T1 sequence: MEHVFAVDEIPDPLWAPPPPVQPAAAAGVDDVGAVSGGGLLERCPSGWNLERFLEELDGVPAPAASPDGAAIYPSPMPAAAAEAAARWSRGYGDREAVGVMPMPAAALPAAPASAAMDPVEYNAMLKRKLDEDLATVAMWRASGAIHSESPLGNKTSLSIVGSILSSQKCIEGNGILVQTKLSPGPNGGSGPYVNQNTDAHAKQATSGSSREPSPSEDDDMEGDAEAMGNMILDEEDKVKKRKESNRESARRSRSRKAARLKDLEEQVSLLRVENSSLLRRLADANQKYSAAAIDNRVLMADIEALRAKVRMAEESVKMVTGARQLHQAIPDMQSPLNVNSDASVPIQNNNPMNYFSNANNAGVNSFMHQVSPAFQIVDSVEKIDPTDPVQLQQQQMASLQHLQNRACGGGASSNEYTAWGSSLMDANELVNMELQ
Method in brief: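 Using Ni–NTA, transcription factors fused N-terminally to polyhistidine and DsRed were purified after expression in E. coli BL21-CodonPlus. These were incubated at 200 nM with a blocked, double-stranded custom Agilent array for 1 h at 25 °C in a buffer containing 50 µM zinc acetate, and the array was washed. The binding signal is per-feature fluorescence intensity (arbitrary units) on an Axon 4000B scanner.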

Row | Sequence | binding signal
1 | GCGAGCTCCTGGAGGCGGCGAGGGCGCCGGAGTTCGCGGGCGGAGTCACCTAGTGCAG | 37200 fluorescence intensity (a.u.)
2 | TAATGGAGACAAAGCTAGCGCGCGAGCACATGCACGTCACCGGAGTCACCTAGTGCAG | 3830 fluorescence intensity (a.u.)
3 | TGATGGATAAATATGTGTTATATGACTCATTGAAATGTATCGGAGTCACCTAGTGCAG | 6120 fluorescence intensity (a.u.)
4 | AAGAGAGACAGATTTAAACCAGCTCAGCCAATCCCCTCCCCGGAGTCACCTAGTGCAG | 3840 fluorescence intensity (a.u.)
5 | AACTCTTGACAGCACCGACCATACGTGTACACAACCCATCCGGAGTCACCTAGTGCAG | 10200 fluorescence intensity (a.u.)
6 | GGTATAGTGCCACGTGGCATCTGCCACTCCCGCCATCTCTCGGAGTCACCTAGTGCAG | 32000 fluorescence intensity (a.u.)
7 | GGACAACTTCCTCCCCACCGTCCACGTCGACCTCCGCCAGCGGAGTCACCTAGTGCAG | 11600 fluorescence intensity (a.u.)
8 | TGGAGGAGGAGGAGGGGAGACCACCGGAGGTAGGCGAATCCGGAGTCACCTAGTGCAG | 3140 fluorescence intensity (a.u.)
9 | ATGATGATACGTATATATTGGGACTGCTCCATTCGTTTCACGGAGTCACCTAGTGCAG | 3170 fluorescence intensity (a.u.)
10 | CCCTCCTCCTCGCCGCCGGCGCGGCGCGCGTGCAATGCAACGGAGTCACCTAGTGCAG | 3620 fluorescence intensity (a.u.)
11 | CGCCGTCCGCCTCCTCCGTCAGCAGGTTCCTCACCGCGTGCGGAGTCACCTAGTGCAG | 7020 fluorescence intensity (a.u.)
12 | TTCAAGTTGAAAACTTCCAACTCACCAATTGATTTTATTCCGGAGTCACCTAGTGCAG | 3920 fluorescence intensity (a.u.)
13 | TATATACTGCACTTCTGCCCTATACACTGTATTTGTATTTCGGAGTCACCTAGTGCAG | 3810 fluorescence intensity (a.u.)
14 | CATGATTAGCCATAAGTGCTACAGTAACCCACATGTGCTACGGAGTCACCTAGTGCAG | 28300 fluorescence intensity (a.u.)
15 | AAATGTAGTTGTAAAATCCACAAAATAGTCTAGTCAGAAGCGGAGTCACCTAGTGCAG | 3340 fluorescence intensity (a.u.)
16 | AATATGATGGTGCCATTGACGTTGGCGTTGTCACATTCACCGGAGTCACCTAGTGCAG | 4410 fluorescence intensity (a.u.)
17 | TCGCACGCCAAATTCACACGTGACAGCTACCGTCTTCTCGCGGAGTCACCTAGTGCAG | 3370 fluorescence intensity (a.u.)
18 | CAAGATGGGTCGGGTTGGGTGGGGTTACTCGCACTAGCACCGGAGTCACCTAGTGCAG | 3160 fluorescence intensity (a.u.)
19 | AGCTGTTCGGTGGCGGGCGGATCCACCTCGGCCAGCCTCGCGGAGTCACCTAGTGCAG | 3300 fluorescence intensity (a.u.)
20 | AAGAATTAAAGAAGCCTTTATAAGAAGAGAAGGCCAAGCTCGGAGTCACCTAGTGCAG | 60800 fluorescence intensity (a.u.)
21 | GTTCTTCGTCGCCTCCATCCACATCGTCGTCGCCACCACCCGGAGTCACCTAGTGCAG | 3450 fluorescence intensity (a.u.)

From no. 2 to 3, copied from above:
Row | Sequence | binding signal
2 | TAATGGAGACAAAGCTAGCGCGCGAGCACATGCACGTCACCGGAGTCACCTAGTGCAG | 3830 fluorescence intensity (a.u.)
3 | TGATGGATAAATATGTGTTATATGACTCATTGAAATGTATCGGAGTCACCTAGTGCAG | 6120 fluorescence intensity (a.u.)

Following part

Row | Sequence | binding signal
22 | ACAATTCAATGACATCTGATGGAGATGTGTTCCATATCAACGGAGTCACCTAGTGCAG | 3520 fluorescence intensity (a.u.)
23 | GTAACAGAGTTTGCTGATTGTAAATTTGGTGGCGTGGCATCGGAGTCACCTAGTGCAG | 4480 fluorescence intensity (a.u.)
24 | TCAGTTTCTTCAAGACCGTGACACATGCACTCCTTGACATCGGAGTCACCTAGTGCAG | 4020 fluorescence intensity (a.u.)
25 | GGCTCTGACCTGTGCCTCGTCACCCACCTCGCCCGCCGCCCGGAGTCACCTAGTGCAG | 13700 fluorescence intensity (a.u.)
26 | CATTCAACGCTCGCGTGCGTGCAGTGCCGTGTGTGGACCGCGGAGTCACCTAGTGCAG | 54900 fluorescence intensity (a.u.)
27 | TTGTGACTTGATTTATCATCAAATGTTCTTTAAACATGACCGGAGTCACCTAGTGCAG | 3540 fluorescence intensity (a.u.)
28 | TTAAGCCGCTTGATATGATGACTGGTAGCTCACTGGATCACGGAGTCACCTAGTGCAG | 4620 fluorescence intensity (a.u.)
29 | AATCATCCGCCCCAGGCCCCAGCCACGTCGTCCAGATCGCCGGAGTCACCTAGTGCAG | 6410 fluorescence intensity (a.u.)
30 | TAGTCCTTCCACCACACGTATGCTACCTTATCAGATCCGACGGAGTCACCTAGTGCAG | 5090 fluorescence intensity (a.u.)
31 | GGCTCTTTCACGTAGGACGAGGACATGACATCCTATTAACCGGAGTCACCTAGTGCAG | 3560 fluorescence intensity (a.u.)
32 | TGTCTGGGGCAAGGTGCGGAGTCACCCATGGTGGCCGGGCCGGAGTCACCTAGTGCAG | 4320 fluorescence intensity (a.u.)
33 | TCTGCAACAAAATCCAATGCGGACTCAGATTTTCGCCGATCGGAGTCACCTAGTGCAG | 3160 fluorescence intensity (a.u.)
34 | CCGGATAAGTCGTGCGTAACTGATCCGGACTCCACGCCGTCGGAGTCACCTAGTGCAG | 3900 fluorescence intensity (a.u.)
35 | ACCTTTGCTCTGGTTTGCTCAATGCTTGTAGAGATTCTGACGGAGTCACCTAGTGCAG | 19400 fluorescence intensity (a.u.)
36 | AAAGCATGGGTACTCAGCTAGCTTGCTAGTATCGTGTAAACGGAGTCACCTAGTGCAG | 3220 fluorescence intensity (a.u.)
37 | AGAAGAAGTAGATGAAGAAGGTGAGGTGGCCATTCATATTCGGAGTCACCTAGTGCAG | 4360 fluorescence intensity (a.u.)
38 | ATATATGGTATTATGCGCAAACGGTAACACGTATGTCTTCCGGAGTCACCTAGTGCAG | 3400 fluorescence intensity (a.u.)
39 | CAAATGGCACTATAGTGCATGGCATGTGATGACCTCAGCACGGAGTCACCTAGTGCAG | 23600 fluorescence intensity (a.u.)
40 | GCCTGCTTACTTTCTGCCACCTTTATCTTGCCTAAACAGGCGGAGTCACCTAGTGCAG | 3780 fluorescence intensity (a.u.)
41 | AAGGGAAGACATGTGGGGCCCACGTGGGCCCCACCATTTTCGGAGTCACCTAGTGCAG | 4210 fluorescence intensity (a.u.)
42 | TCCTCGATCTCCCTCGCACCCGTCATCACCCTCGAATGGCCGGAGTCACCTAGTGCAG | 4240 fluorescence intensity (a.u.)
